Assay results as given in patent publication US7288552B2, “Piperidine derivatives, process for preparation thereof, and pharmaceutical composition for alzheimer's disease containing the same” (STC NARA Co., Ltd., priority 2001, dated 2007).
Some of these results come from one statement about several compounds together.

Test system: ICR mice
Assay: Acute toxicity test on animals
Type: in vivo
Settings: intraperitoneal, prediction from the experiment
Protocol: In order for a compound to be comprised in the pharmaceutical composition for treating Alzheimer's disease, it must be nontoxic. […] This test followed the protocol of Korea Food & Drug Administration. […] The compounds used for the test were diluted with wheat germ oil.

Structure (SMILES)	fatal dose [mg/kg]
CC(C)(C)c1ccc(C(=O)OCCCCN2CCC(OC(c3ccccc3)c3ccccc3)CC2)cc1 [Example 6, 4-[4-(benzhydryloxy)piperidino]butyl 4-(tert-butyl)benzoate]	> 500
O=C(OCCCCN1CCC(OC(c2ccccc2)c2ccccc2)CC1)c1ccc(Cl)cc1 [Example 2, 4-[4-(benzhydryloxy)piperidino]butyl-4-chlorobenzoate]	> 500
